The entries are a selection whose mix differs from that of the whole data set. Calls are pooled over several reports, among them a noisy single-well screen. The list shows a part of the results.
How the values were obtained:
Conditions in all cases: stereoisomer not certain
OR5M11 (Homo sapiens) = target: T1, OR5M11 (Homo sapiens) (UniProt Q96RB7)
T1 sequence (whole entry): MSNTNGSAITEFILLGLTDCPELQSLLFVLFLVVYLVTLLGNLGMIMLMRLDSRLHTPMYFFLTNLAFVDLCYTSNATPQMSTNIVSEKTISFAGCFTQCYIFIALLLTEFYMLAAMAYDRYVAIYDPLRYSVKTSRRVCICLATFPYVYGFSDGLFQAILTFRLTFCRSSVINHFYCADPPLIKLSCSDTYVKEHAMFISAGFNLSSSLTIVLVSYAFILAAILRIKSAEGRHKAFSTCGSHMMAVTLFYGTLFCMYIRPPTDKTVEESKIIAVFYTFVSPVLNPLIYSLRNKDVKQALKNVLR
In short: (§1)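 Each receptor–molecule pair is labelled responsive or non-responsive (inactive) according to whether the original authors judged the measured signal statistically different from baseline. The data were taken from the main text and supplementary material of published papers and checked for typos and inconsistencies. Assay methods differed by source, with transient luciferase assays in mammalian cell lines being common.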

OR5M1 = test system: T2, OR5M1
T2 sequence (whole entry): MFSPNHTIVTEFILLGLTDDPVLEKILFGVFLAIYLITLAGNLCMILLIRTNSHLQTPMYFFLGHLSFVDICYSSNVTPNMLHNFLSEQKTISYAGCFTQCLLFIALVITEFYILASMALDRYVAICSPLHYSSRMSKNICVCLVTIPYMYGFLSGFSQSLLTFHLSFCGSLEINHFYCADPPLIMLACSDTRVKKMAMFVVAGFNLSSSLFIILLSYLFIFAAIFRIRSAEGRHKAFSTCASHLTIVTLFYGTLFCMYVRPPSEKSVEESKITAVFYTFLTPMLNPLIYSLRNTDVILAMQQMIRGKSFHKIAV
In short: as §1

OR5M3 (Homo sapiens) = target: T3, OR5M3 (Homo sapiens) (UniProt Q8NGP4)
T3 sequence (whole entry): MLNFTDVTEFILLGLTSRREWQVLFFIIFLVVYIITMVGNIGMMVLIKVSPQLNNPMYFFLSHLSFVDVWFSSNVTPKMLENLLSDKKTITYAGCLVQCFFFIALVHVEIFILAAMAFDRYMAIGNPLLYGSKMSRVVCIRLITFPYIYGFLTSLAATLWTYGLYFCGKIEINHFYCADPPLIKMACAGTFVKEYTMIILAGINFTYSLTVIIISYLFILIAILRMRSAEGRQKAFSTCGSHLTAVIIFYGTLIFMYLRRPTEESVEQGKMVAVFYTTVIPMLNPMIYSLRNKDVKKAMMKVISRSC
In short: as §1

OR5M8 (Homo sapiens) = target: T4, OR5M8 (Homo sapiens) (UniProt Q8NGP6)
T4 sequence (whole entry): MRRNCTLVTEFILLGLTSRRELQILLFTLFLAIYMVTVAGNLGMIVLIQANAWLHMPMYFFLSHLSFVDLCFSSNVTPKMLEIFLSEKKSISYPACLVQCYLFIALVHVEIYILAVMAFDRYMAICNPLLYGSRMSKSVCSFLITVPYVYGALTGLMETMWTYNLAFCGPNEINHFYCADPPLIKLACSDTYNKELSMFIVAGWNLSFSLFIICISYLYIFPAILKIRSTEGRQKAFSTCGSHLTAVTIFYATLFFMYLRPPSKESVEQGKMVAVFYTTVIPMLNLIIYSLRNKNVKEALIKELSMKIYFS
In short: as §1

OR5M9 (Homo sapiens) = target: T5, OR5M9 (Homo sapiens) (UniProt Q8NGP3)
T5 sequence (whole entry): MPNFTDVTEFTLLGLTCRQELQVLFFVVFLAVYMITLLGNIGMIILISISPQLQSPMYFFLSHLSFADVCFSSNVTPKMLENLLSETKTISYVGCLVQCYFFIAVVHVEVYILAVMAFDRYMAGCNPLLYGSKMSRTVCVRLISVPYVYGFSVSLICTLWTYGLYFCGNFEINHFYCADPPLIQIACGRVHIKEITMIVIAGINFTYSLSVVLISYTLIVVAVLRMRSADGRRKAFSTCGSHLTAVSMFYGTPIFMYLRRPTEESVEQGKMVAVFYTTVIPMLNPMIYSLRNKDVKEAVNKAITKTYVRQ
In short: as §1

OR5MA = test system: T6, OR5MA
T6 sequence (whole entry): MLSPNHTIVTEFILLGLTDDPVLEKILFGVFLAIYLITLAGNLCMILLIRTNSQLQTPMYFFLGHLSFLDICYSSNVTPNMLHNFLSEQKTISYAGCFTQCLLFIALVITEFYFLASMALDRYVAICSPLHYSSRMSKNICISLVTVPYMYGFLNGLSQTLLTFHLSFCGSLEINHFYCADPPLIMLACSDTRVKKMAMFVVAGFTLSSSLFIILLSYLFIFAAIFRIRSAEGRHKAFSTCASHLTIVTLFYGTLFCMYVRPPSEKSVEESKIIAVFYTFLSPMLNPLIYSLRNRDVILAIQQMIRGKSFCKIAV
In short: as §1

OR5P2 (Homo sapiens) = target: T7, OR5P2 (Homo sapiens) (UniProt Q8WZ92)
T7 sequence (whole entry): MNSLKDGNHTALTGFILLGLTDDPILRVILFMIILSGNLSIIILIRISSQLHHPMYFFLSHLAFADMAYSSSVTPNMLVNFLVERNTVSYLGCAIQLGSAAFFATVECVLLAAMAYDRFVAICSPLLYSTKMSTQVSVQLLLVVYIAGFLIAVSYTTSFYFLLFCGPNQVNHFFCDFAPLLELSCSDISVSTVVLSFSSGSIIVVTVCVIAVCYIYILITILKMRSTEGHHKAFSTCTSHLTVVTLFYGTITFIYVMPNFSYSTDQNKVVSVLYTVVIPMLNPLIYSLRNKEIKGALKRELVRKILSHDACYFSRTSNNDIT
In short: as §1

OR5P3 (Homo sapiens) = target: T8, OR5P3 (Homo sapiens) (UniProt Q8WZ94)
T8 sequence (whole entry): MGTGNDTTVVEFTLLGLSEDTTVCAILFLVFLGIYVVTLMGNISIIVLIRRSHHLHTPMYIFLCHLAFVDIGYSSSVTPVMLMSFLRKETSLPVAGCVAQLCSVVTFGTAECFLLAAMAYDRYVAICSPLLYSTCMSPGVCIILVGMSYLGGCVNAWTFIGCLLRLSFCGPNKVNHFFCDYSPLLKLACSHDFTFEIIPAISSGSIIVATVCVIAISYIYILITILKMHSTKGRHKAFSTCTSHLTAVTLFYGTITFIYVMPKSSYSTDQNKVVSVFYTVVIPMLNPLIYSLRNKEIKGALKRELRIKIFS
In short: as §1

OR5R1 = test system: T9, OR5R1
T9 sequence (whole entry): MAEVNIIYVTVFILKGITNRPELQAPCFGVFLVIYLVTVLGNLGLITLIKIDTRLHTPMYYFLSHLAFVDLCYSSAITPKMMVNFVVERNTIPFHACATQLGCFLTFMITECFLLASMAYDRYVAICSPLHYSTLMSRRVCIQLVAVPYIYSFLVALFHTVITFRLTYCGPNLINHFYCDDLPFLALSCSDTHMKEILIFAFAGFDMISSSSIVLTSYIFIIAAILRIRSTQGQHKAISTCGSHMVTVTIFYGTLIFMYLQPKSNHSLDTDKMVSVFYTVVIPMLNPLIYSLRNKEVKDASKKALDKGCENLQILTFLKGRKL
In short: as §1
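Note: active if original authors judged signal statistically different from baseline.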

Row | SMILES | odorant receptor agonist call (OR5M11 (Homo sapiens)) | odorant receptor agonist call (OR5M1) | odorant receptor agonist call (OR5M3 (Homo sapiens)) | odorant receptor agonist call (OR5M8 (Homo sapiens)) | odorant receptor agonist call (OR5M9 (Homo sapiens)) | odorant receptor agonist call (OR5MA) | odorant receptor agonist call (OR5P2 (Homo sapiens)) | odorant receptor agonist call (OR5P3 (Homo sapiens)) | odorant receptor agonist call (OR5R1)
1 | CCCCO | inactive | inactive | inactive | inactive | inactive | inactive | inactive | inactive | inactive
2 | COc1ccccc1O | inactive | inactive | inactive | inactive | inactive | inactive | inactive | inactive | inactive
3 | CC(=O)C(C)=O | inactive | inactive | inactive | inactive | inactive | inactive | inactive | inactive | inactive
4 | CCCCCCCCC=O |  |  | inactive |  |  |  |  | inactive | 
5 | CC1COCc2cc3c(cc21)C(C)(C)C(C)C3(C)C (stereo unspecified) | inactive | active |  | active | active | inactive | active | inactive | inactive
6 | O=C1CCCCCCCCCCCC(=O)OCCO1 | inactive | inactive |  | inactive | inactive | inactive | inactive | inactive | inactive
7 | CC12C=CCC1C1CCC3=CC(=O)CCC3(C)C1CC2 (stereo unspecified) | inactive | inactive |  | inactive | inactive | active | inactive | inactive | inactive
8 | c1ccc(Oc2ccccc2)cc1 | inactive | inactive |  | inactive | inactive | inactive | inactive | inactive | inactive
9 | CC(=O)c1ccccc1 |  | inactive |  | inactive | inactive |  | inactive | active | inactive
10 | COC(=O)c1ccccc1 |  | inactive | inactive | inactive | inactive |  | inactive | active | inactive
11 | C=CCSCC=C | inactive | inactive |  | inactive | inactive | inactive | inactive | inactive | inactive
12 | COC(=O)c1ccccc1O | inactive | inactive |  | inactive | inactive | inactive | inactive | active | inactive
13 | CCCCCCOC(=O)CCC | inactive | inactive |  | inactive | inactive | inactive | inactive | inactive | inactive
14 | CC(C)(O)CCCC1=CCC(C=O)CC1 (stereo unspecified) | inactive |  |  |  | inactive | inactive |  | inactive | 
15 | CC(=O)OCC=C(C)CCC=C(C)C | active | inactive |  | inactive | active | active | inactive | inactive | inactive
16 | CC1=NC(C)SC1C (stereo unspecified) |  | inactive |  | inactive | inactive |  | inactive | inactive | inactive

8 entries out of the list, arranged by formula weight, descending.
Row | SMILES | odorant receptor agonist call (OR5M11 (Homo sapiens)) | odorant receptor agonist call (OR5M1) | odorant receptor agonist call (OR5M3 (Homo sapiens)) | odorant receptor agonist call (OR5M8 (Homo sapiens)) | odorant receptor agonist call (OR5M9 (Homo sapiens)) | odorant receptor agonist call (OR5MA) | odorant receptor agonist call (OR5P2 (Homo sapiens)) | odorant receptor agonist call (OR5P3 (Homo sapiens)) | odorant receptor agonist call (OR5R1)
7 | CC12C=CCC1C1CCC3=CC(=O)CCC3(C)C1CC2 (stereo unspecified) | inactive | inactive |  | inactive | inactive | active | inactive | inactive | inactive
5 | CC1COCc2cc3c(cc21)C(C)(C)C(C)C3(C)C (stereo unspecified) | inactive | active |  | active | active | inactive | active | inactive | inactive
14 | CC(C)(O)CCCC1=CCC(C=O)CC1 (stereo unspecified) | inactive |  |  |  | inactive | inactive |  | inactive | 
8 | c1ccc(Oc2ccccc2)cc1 | inactive | inactive |  | inactive | inactive | inactive | inactive | inactive | inactive
12 | COC(=O)c1ccccc1O | inactive | inactive |  | inactive | inactive | inactive | inactive | active | inactive
10 | COC(=O)c1ccccc1 |  | inactive | inactive | inactive | inactive |  | inactive | active | inactive
16 | CC1=NC(C)SC1C (stereo unspecified) |  | inactive |  | inactive | inactive |  | inactive | inactive | inactive
2 | COc1ccccc1O | inactive | inactive | inactive | inactive | inactive | inactive | inactive | inactive | inactive

More results follow.

Row | SMILES | odorant receptor agonist call (OR5M11 (Homo sapiens)) | odorant receptor agonist call (OR5M1) | odorant receptor agonist call (OR5M3 (Homo sapiens)) | odorant receptor agonist call (OR5M8 (Homo sapiens)) | odorant receptor agonist call (OR5M9 (Homo sapiens)) | odorant receptor agonist call (OR5MA) | odorant receptor agonist call (OR5P2 (Homo sapiens)) | odorant receptor agonist call (OR5P3 (Homo sapiens)) | odorant receptor agonist call (OR5R1)
17 | c1cnccn1 | inactive | inactive |  | inactive | inactive | inactive | inactive | inactive | inactive
18 | CC(C)CCC(=O)O | inactive | inactive |  | inactive | inactive | inactive | inactive | inactive | inactive
19 | CCC1(O)C2(C)CCC(C2)C1(C)C (stereo unspecified) | inactive | inactive |  | inactive | inactive | inactive | inactive | inactive | inactive
20 | CCCCCOC(C)=O | inactive | inactive |  | inactive | inactive | inactive | inactive | inactive | inactive
21 | CC(=O)OC1CC2CCC1(C)C2(C)C (stereo unspecified) | inactive | inactive |  | inactive | inactive | inactive | inactive | inactive | inactive
22 | O=C1CCCCCCCCCCCCCCO1 | inactive | inactive |  | inactive | inactive | inactive | inactive | inactive | inactive
23 | CCCCCCCCOC(C)=O | inactive | inactive |  | inactive | inactive | inactive | inactive | inactive | inactive
24 | CC1CCC(C(C)C)C(O)C1 (stereo unspecified) | active | inactive |  | active | inactive | inactive | inactive | active | inactive
25 | CCCCCC(C)=O |  | inactive |  | inactive | inactive |  | inactive | inactive | inactive
26 | CCCCCCC=O |  |  |  |  |  |  |  | inactive | 
27 | O=C1CCCCC1 |  | inactive |  | inactive | inactive |  | inactive | inactive | inactive
28 | CCCCCCCCCCC=O | inactive | inactive |  | inactive | inactive | inactive | inactive | inactive | inactive
29 | C=CCc1ccc(O)c(OC)c1 |  |  | inactive |  |  |  |  |  | 
30 | C=C(C)C1CCC2=CC(=O)CC(C)C2(C)C1 (stereo unspecified) | inactive |  |  |  |  | inactive |  |  | 
31 | C=C(C)C1CC=C(C)C(=O)C1 (stereo unspecified) |  |  | inactive |  |  |  |  | active | 
